# Laboratory results as given in the supplement of paper PMC8728848.
# Some of the results follow.
# Tests used:
# Assay in all cases: glycan array binding signal (z-score within array); higher = stronger binding
# Details in all cases: glycan notation: IUPAC condensed, linker removed
# [1] = target: Neu5Ac(a2-6)Gal(b1-4)GlcNAc(b1-3)Gal(b1-4)GlcNAc(b1-3)GalNAc
# In short: (§1)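 The Consortium for Functional Glycomics database supplied 3228 glycan arrays, of which those lacking an available protein sequence were dropped. The binding signal, a within-array Z-score, was averaged across arrays of the same protein sequence and across linkers. Negative scores can be read as non-binding.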
# [2] = target: Neu5Ac(a2-6)Gal(b1-4)GlcNAc(b1-3)Gal(b1-4)GlcNAc(b1-3)[Neu5Ac(a2-6)Gal(b1-4)GlcNAc(b1-3)Gal(b1-4)GlcNAc(b1-6)]GalNAc
# In short: as §1
# [3] = target: Neu5Ac(a2-6)Gal(b1-4)GlcNAc(b1-3)Gal(b1-4)GlcNAc(b1-6)[Gal(b1-3)]GalNAc
# In short: as §1
# [4] = target: Neu5Ac(a2-6)Gal(b1-4)GlcNAc(b1-3)Gal(b1-4)[Fuc(a1-3)]GlcNAc(b1-3)Gal(b1-4)[Fuc(a1-3)]GlcNAc
# In short: as §1
# [5] = target: Neu5Ac(a2-6)Gal(b1-4)GlcNAc(b1-3)GalNAc
# In short: as §1
# [6] = target: Neu5Ac(a2-6)Gal(b1-4)GlcNAc(b1-3)[Neu5Ac(a2-6)Gal(b1-4)GlcNAc(b1-6)]GalNAc
# In short: as §1
# [7] = target: Neu5Ac(a2-6)Gal(b1-4)GlcNAc(b1-6)GalNAc
# In short: as §1
# [8] = target: Neu5Ac(a2-6)Gal(b1-4)GlcNAc(b1-6)[Gal(b1-3)GlcNAc(b1-3)]Gal(b1-4)Glc
# In short: as §1
# [9] = target: Neu5Ac(a2-6)Gal(b1-4)GlcNAc(b1-6)[Gal(b1-3)]GalNAc
# In short: as §1
# [10] = target: Neu5Ac(a2-6)Gal(b1-4)GlcNAc6S
# In short: as §1
# Neu5Ac(a2-6)GalNAc = target: Neu5Ac(a2-6)GalNAc
# In short: as §1
# [11] = target: Neu5Ac(a2-6)GalNAc(b1-4)GlcNAc
# In short: as §1
# [12] = target: Neu5Ac(a2-6)GalNAc(b1-4)GlcNAc6S
# In short: as §1
# [13] = target: Neu5Ac(a2-6)GlcNAc(b1-4)GlcNAc
# In short: as §1
# [14] = target: Neu5Ac(a2-6)GlcNAc(b1-4)GlcNAc(b1-4)GlcNAc
# In short: as §1
# Neu5Ac(a2-8)Neu5Ac = target: Neu5Ac(a2-8)Neu5Ac
# In short: as §1
# [15] = target: Neu5Ac(a2-8)Neu5Ac(a2-3)Gal(b1-3)GalNAc(b1-4)[Neu5Ac(a2-3)]Gal(b1-4)Glc
# In short: as §1
# [16] = target: Neu5Ac(a2-8)Neu5Ac(a2-3)Gal(b1-3)GalNAc(b1-4)[Neu5Ac(a2-8)Neu5Ac(a2-3)]Gal(b1-4)Glc
# In short: as §1
# [17] = target: Neu5Ac(a2-8)Neu5Ac(a2-3)Gal(b1-4)Glc
# In short: as §1
# [18] = target: Neu5Ac(a2-8)Neu5Ac(a2-3)Gal(b1-4)GlcNAc
# In short: as §1
# [19] = target: Neu5Ac(a2-8)Neu5Ac(a2-3)[Gal(b1-3)GalNAc(b1-4)]Gal(b1-4)Glc
# In short: as §1
# [20] = target: Neu5Ac(a2-8)Neu5Ac(a2-3)[GalNAc(b1-4)]Gal(b1-4)Glc
# In short: as §1
# [21] = target: Neu5Ac(a2-8)Neu5Ac(a2-8)Neu5Ac
# In short: as §1
# [22] = target: Neu5Ac(a2-8)Neu5Ac(a2-8)Neu5Ac(a2-3)Gal(b1-4)Glc
# In short: as §1
# [23] = target: Neu5Ac(a2-8)Neu5Ac(a2-8)Neu5Ac(a2-3)[Gal(b1-3)GalNAc(b1-4)]Gal(b1-4)Glc
# In short: as §1
# [24] = target: Neu5Ac(a2-8)Neu5Ac(a2-8)Neu5Ac(a2-3)[GalNAc(b1-4)]Gal(b1-4)Glc
# In short: as §1
# [25] = target: Neu5Ac(a2-8)Neu5Ac(a2-8)Neu5Ac(a2-8)Neu5Ac(a2-3)[GalNAc(b1-4)]Gal(b1-4)Glc
# In short: as §1
# [26] = target: Neu5Ac(a2-8)Neu5Gc(a2-3)Gal(b1-4)GlcNAc
# In short: as §1
# [27] = target: Neu5Ac(b2-6)Gal(b1-4)GlcNAc
# In short: as §1
# Neu5Ac(b2-6)GalNAc = target: Neu5Ac(b2-6)GalNAc
# In short: as §1
# [28] = target: Neu5Ac9Ac(a2-3)Gal(b1-3)GlcNAc
# In short: as §1
# [29] = target: Neu5Ac9Ac(a2-3)Gal(b1-4)GlcNAc
# In short: as §1
# [30] = target: Neu5Ac9Ac(a2-6)Gal(b1-4)GlcNAc
# In short: as §1
# [31] = target: Neu5Gc(a2-3)Gal(b1-3)GlcNAc
# In short: as §1
# [32] = target: Neu5Gc(a2-3)Gal(b1-3)[Fuc(a1-4)]GlcNAc
# In short: as §1
# Neu5Gc(a2-3)Gal(b1-4)Glc = target: Neu5Gc(a2-3)Gal(b1-4)Glc
# In short: as §1
# [33] = target: Neu5Gc(a2-3)Gal(b1-4)GlcNAc
# In short: as §1
# [34] = target: Neu5Gc(a2-3)Gal(b1-4)GlcNAc(b1-3)Gal(b1-4)GlcNAc(b1-2)Man(a1-3)[Neu5Gc(a2-3)Gal(b1-4)GlcNAc(b1-3)Gal(b1-4)GlcNAc(b1-2)Man(a1-6)]Man(b1-4)GlcNAc(b1-4)GlcNAc
# In short: as §1
# [35] = target: Neu5Gc(a2-3)Gal(b1-4)[Fuc(a1-3)]GlcNAc
# In short: as §1
# [36] = target: Neu5Gc(a2-6)Gal(b1-4)GlcNAc
# In short: as §1
# Neu5Gc(a2-6)GalNAc = target: Neu5Gc(a2-6)GalNAc
# In short: as §1
# [37] = target: Neu5Gc(a2-8)Neu5Ac(a2-3)Gal(b1-4)GlcNAc
# In short: as §1
# [38] = target: Neu5Gc(a2-8)Neu5Gc(a2-3)Gal(b1-4)GlcNAc
# In short: as §1
# [39] = target: Neu5Gc(a2-8)Neu5Gc(a2-3)Gal(b1-4)GlcNAc(b1-3)Gal(b1-4)GlcNAc
# In short: as §1
# [40] = target: Neu5Gc(a2-8)Neu5Gc(a2-6)Gal(b1-4)GlcNAc
# In short: as §1
# [41] = target: Neu5Gc(b2-6)Gal(b1-4)GlcNAc
# In short: as §1
binder,measurement,setting,value
OS9 (Arabidopsis thaliana) (protein) MRGSHHHHHHGMASMTGGQQMGRDLYDDDDKSRLQIFPAHLVGTFSRNNREPKYKIEFLPEDSPFHPGDNLESMVMLDKHGNRFLCYLPKEEKATSGWTSSQQNISTVMMETQQLVKLKTPDELLQPLSEKCLFRQEGWWSYEFCHQKYVRQLHVEDENKIVQEFFLGTFDPEATAAFNQTVSDASTDASQRYHSHVYTNGTTCDLTGSPREVEVRFVCAETRAMVTSITELSTCKYALTVQCPTLCKHPLFQLEKPVSHTIHCNAIPVEEDATRNKEEQAVDESPKMIADS,glycan array binding signal (z-score),[1],0.784
same,glycan array binding signal (z-score),[2],1.02
same,glycan array binding signal (z-score),[3],0.065
same,glycan array binding signal (z-score),[4],-0.53
same,glycan array binding signal (z-score),[5],-0.297
same,glycan array binding signal (z-score),[6],-0.234
same,glycan array binding signal (z-score),[7],-0.911
same,glycan array binding signal (z-score),[8],-0.32
same,glycan array binding signal (z-score),[9],-0.789
same,glycan array binding signal (z-score),[10],0.134
same,glycan array binding signal (z-score),Neu5Ac(a2-6)GalNAc,-0.739
same,glycan array binding signal (z-score),[11],0.735
same,glycan array binding signal (z-score),[12],1.14
same,glycan array binding signal (z-score),[13],-0.464
same,glycan array binding signal (z-score),[14],0.614
same,glycan array binding signal (z-score),Neu5Ac(a2-8)Neu5Ac,0.523
same,glycan array binding signal (z-score),[15],0.308
same,glycan array binding signal (z-score),[16],-0.384
same,glycan array binding signal (z-score),[17],-0.375
same,glycan array binding signal (z-score),[18],0.95
same,glycan array binding signal (z-score),[19],1.47
same,glycan array binding signal (z-score),[20],-1.26
same,glycan array binding signal (z-score),[21],1.33
same,glycan array binding signal (z-score),[22],-0.496
same,glycan array binding signal (z-score),[23],-0.949
same,glycan array binding signal (z-score),[24],0.256
same,glycan array binding signal (z-score),[25],-0.26
same,glycan array binding signal (z-score),[26],1.86
same,glycan array binding signal (z-score),[27],-0.082
same,glycan array binding signal (z-score),Neu5Ac(b2-6)GalNAc,-0.811
same,glycan array binding signal (z-score),[28],1.19
same,glycan array binding signal (z-score),[29],-1.12
same,glycan array binding signal (z-score),[30],0.706
same,glycan array binding signal (z-score),[31],-0.246
same,glycan array binding signal (z-score),[32],-1.06
same,glycan array binding signal (z-score),Neu5Gc(a2-3)Gal(b1-4)Glc,-1.01
same,glycan array binding signal (z-score),[33],0.75
same,glycan array binding signal (z-score),[34],-0.725
same,glycan array binding signal (z-score),[35],-0.962
same,glycan array binding signal (z-score),[36],-0.756
same,glycan array binding signal (z-score),Neu5Gc(a2-6)GalNAc,-0.193
same,glycan array binding signal (z-score),[37],-0.74
same,glycan array binding signal (z-score),[38],-0.682
same,glycan array binding signal (z-score),[39],-0.569
same,glycan array binding signal (z-score),[40],0.458
same,glycan array binding signal (z-score),[41],0.402

# Part of the list above, as tab-separated lines.
binder	measurement	setting	value
OS9 (Arabidopsis thaliana) (protein) MRGSHHHHHHGMASMTGGQQMGRDLYDDDDKSRLQIFPAHLVGTFSRNNREPKYKIEFLPEDSPFHPGDNLESMVMLDKHGNRFLCYLPKEEKATSGWTSSQQNISTVMMETQQLVKLKTPDELLQPLSEKCLFRQEGWWSYEFCHQKYVRQLHVEDENKIVQEFFLGTFDPEATAAFNQTVSDASTDASQRYHSHVYTNGTTCDLTGSPREVEVRFVCAETRAMVTSITELSTCKYALTVQCPTLCKHPLFQLEKPVSHTIHCNAIPVEEDATRNKEEQAVDESPKMIADS	glycan array binding signal (z-score)	[4]	-0.53
same	glycan array binding signal (z-score)	[5]	-0.297
